Data source: PubChem BioAssay AID504774 (Drosophila RNAi Screening Center, 2011)

Assay: 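Knock-downs that shift viability of MMS-exposed cells relative to untreated ones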 (primary screen)
Cell system: Drosophila Kc167 cells
Knock-down reagent: long dsRNA against Drosophila genes, about 0.25 µg dsRNA per well
Timing: about 6 days: 3 days knock-down, then 3 days with or without MMS
Treatment: methyl methanesulphonate 0.004% (w/v) for 3 days after knock-down
Detection: 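Viability in wells given MMS, read as ATP luminescence, normalised by quantiles plate by plate and averaged across replicates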
Scale: mean viability with MMS: higher = more surviving cells after MMS
In all, the deposit lists about 23,000 reagents; this is an unselected part of those with a known target gene and a result. 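Values are quantile-normalised luminescence on an arbitrary scale; higher means more cells surviving MMS.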 The numbers tell different reagents against one gene apart. A plus sign joins genes that one reagent is predicted to hit. Not all columns of the deposit are shown.

Which result is listed for CG3634?
mean viability with MMS: 3.24e6

What did the screen give for Gr47b?
mean viability with MMS: 3.44e6

Which result is listed for CG18281?
mean viability with MMS: 3.67e6

With Twdlalpha, how do the results read?
mean viability with MMS: 3.47e6

For CG1663 #1, what was measured?
mean viability with MMS: 3.46e6

For CG1663 #2, what does the deposit list?
mean viability with MMS: 3.65e6

For Ae2 #1, what does the deposit list?
mean viability with MMS: 1.67e6

For Ae2 #2, what does the deposit list?
mean viability with MMS: 3.47e6

What did the screen give for rho-4 #1?
mean viability with MMS: 3.66e6

For rho-4 #2, what does the deposit list?
mean viability with MMS: 3.60e6

What is on record for CG32121?
mean viability with MMS: 3.48e6

What is on record for CG3651?
mean viability with MMS: 3.62e6

Quoted from the listing for reference:
Ae2 #2 | mean viability with MMS = 3.47e6
rho-4 #1 | mean viability with MMS = 3.66e6

Further records follow:
Which result is listed for CG31661?
mean viability with MMS: 3.41e6

Which result is listed for CG12964 #1?
mean viability with MMS: 3.18e6

With CG12964 #2, what was measured?
mean viability with MMS: 3.35e6

For spz5, what was measured?
mean viability with MMS: 3.29e6

What is on record for tank?
mean viability with MMS: 3.72e6

How did the screen score Pdk1?
mean viability with MMS: 3.31e6

For CG7848, what does the deposit list?
mean viability with MMS: 3.45e6

For RluA-2, what does the deposit list?
mean viability with MMS: 3.63e6

For CG5188, what does the deposit list?
mean viability with MMS: 3.51e6

What is on record for CG13877 + pyx?
mean viability with MMS: 3.67e6

Which result is listed for Galphao?
mean viability with MMS: 3.62e6

What is on record for ball?
mean viability with MMS: 3.47e6

What is on record for Adgf-A?
mean viability with MMS: 3.70e6

Which result is listed for L (retired record) #1?
mean viability with MMS: 3.45e6

How did the screen score L (retired record) #2?
mean viability with MMS: 2.91e6

How did the screen score stx #1?
mean viability with MMS: 2.86e6

With stx #2, how do the results read?
mean viability with MMS: 3.10e6

Which result is listed for stx #3?
mean viability with MMS: 2.86e6

What did the screen give for CG15894 #1?
mean viability with MMS: 3.61e6

With CG15894 #2, how do the results read?
mean viability with MMS: 3.21e6

For Cyp12c1, how do the results read?
mean viability with MMS: 3.50e6

Which result is listed for CG14330?
mean viability with MMS: 3.52e6

Which result is listed for if?
mean viability with MMS: 3.44e6
